In patent US12084403B2 (THE BOARD OF REGENTS OF THE UNIVERSITY OF TEXAS SYSTEM, priority 2017, dated 2024):

Assay: general procedure: Fmoc solid-phase peptide synthesis; Chlorotrityl chloride resin; HATU/DIPEA
Details: for the 2 steps; for step yield: late stage modification step; for conjugation yield: conjugation step

Row | Substance | step yield [%] | conjugation yield [%]
1 | Ac-Trp(Boc)-Lys(-PEG3-N3)-PEG3-Val-Cit-PABC-PNP | 14 | 
2 | Ac-Trp(Boc)-Lys(N3)-Val-Cit-PABC-PNP | 38 | 
3 | Ac-Trp-Lys(-PEG3-N3)-PEG3-Val-Cit-PABC-EdDnp |  | 34
4 | Ac-Trp-Lys(N3)-Val-Cit-PABC-EdDnp |  | 36
